No constants are given. Whether binding was seen depends on the method and setting. Some results given as binding are weak or reduced against the parent protein; the word gives no strength.

By UniProt entry, the sequences of proteins in these tests, tags left out. Residues count along the entry.
UniProt P26718, residues 73-216: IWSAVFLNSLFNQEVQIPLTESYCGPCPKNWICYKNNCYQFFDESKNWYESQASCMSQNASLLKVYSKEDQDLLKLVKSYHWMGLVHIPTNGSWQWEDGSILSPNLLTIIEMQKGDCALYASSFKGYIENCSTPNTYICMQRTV

In the assay the target is T1, human MICA*001 on B16F10-MICA*001 transductants (human) (UniProt Q29983).
T1 sequence: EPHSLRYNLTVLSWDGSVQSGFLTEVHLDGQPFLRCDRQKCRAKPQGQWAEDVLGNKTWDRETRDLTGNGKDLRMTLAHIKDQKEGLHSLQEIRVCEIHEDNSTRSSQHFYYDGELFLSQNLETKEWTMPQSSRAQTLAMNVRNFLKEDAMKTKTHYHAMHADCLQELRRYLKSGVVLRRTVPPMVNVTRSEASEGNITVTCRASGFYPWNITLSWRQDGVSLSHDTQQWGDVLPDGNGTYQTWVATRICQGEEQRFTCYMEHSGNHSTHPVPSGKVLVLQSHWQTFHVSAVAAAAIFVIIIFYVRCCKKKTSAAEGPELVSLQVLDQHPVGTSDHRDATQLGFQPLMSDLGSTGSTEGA
The assay can be described thus: flow cytometry on cells; B16F10-MICA*001 and B16F10-mock transductants stained with recombinant human or mouse NKG2D ectodomains tetramerized with SA-APC; control staining with SA-conjugate only; only the binder purified.

Consider “soluble human NKG2D ectodomain, tetramerized with SA-APC (from UniProt P26718 73-216) (receptor)”, for which the binding entry was “binds”.

B1: soluble mouse NKG2D ectodomain, tetramerized with SA-APC (receptor, UniProt O54709 90-232)
chain: FKETFQPVLCNKEVPVSSREGYCGPCPNNWICHRNNCYQFFNEEKTWNQSQASCLSQNSSLLKIYSKEEQDFLKLVKSYHWMGLVQIPANGSWQWEDGSSLSYNQLTLVEIPKGSCAVYGSSFKAYTEDCANLNTYICMKRAV
As for B1, the binding result is listed as “binds”.

Source of the values: PMC7287395.
